From article PMC8782181
Results are given in words; binding and its absence hold for the method and conditions named. Binding seen in cells or lysates may run through a third protein. These calls come from enrichment with a bait or labelling near it, and not all partners need be listed.

Amino acid sequences for entries named in this document (tags omitted).
UniProt P53297: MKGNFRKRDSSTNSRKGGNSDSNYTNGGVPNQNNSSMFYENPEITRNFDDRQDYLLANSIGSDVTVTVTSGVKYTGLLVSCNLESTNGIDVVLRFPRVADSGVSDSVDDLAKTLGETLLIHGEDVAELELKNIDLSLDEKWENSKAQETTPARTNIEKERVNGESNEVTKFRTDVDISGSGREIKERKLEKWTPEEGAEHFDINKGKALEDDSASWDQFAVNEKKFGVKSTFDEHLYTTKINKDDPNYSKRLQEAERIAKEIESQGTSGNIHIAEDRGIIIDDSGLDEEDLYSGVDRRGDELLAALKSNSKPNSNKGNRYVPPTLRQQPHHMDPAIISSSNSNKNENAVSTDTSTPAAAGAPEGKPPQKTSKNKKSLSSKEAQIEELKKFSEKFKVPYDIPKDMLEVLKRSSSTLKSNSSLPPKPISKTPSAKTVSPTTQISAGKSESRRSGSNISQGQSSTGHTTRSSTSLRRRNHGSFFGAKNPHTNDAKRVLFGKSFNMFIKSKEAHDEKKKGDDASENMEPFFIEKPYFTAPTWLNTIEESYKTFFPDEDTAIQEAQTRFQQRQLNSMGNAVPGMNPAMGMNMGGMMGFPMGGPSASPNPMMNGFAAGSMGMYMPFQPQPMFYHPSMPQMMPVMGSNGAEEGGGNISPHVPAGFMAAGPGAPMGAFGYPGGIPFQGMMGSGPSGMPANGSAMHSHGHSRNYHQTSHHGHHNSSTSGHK

B1: Sui3 (protein, UniProt P09064 1-285)
chain: MSSDLAAELGFDPALKKKKKTKKVIPDDFDAAVNGKENGSGDDLFAGLKKKKKKSKSVSADAEAEKEPTDDIAEALGELSLKKKKKKTKDSSVDAFEKELAKAGLDNVDAESKEGTPSANSSIQQEVGLPYSELLSRFFNILRTNNPELAGDRSGPKFRIPPPVCLRDGKKTIFSNIQDIAEKLHRSPEHLIQYLFAELGTSGSVDGQKRLVIKGKFQSKQMENVLRRYILEYVTCKTCKSINTELKREQSNRLFFMVCKSCGSTRSVSSIKTGFQATVGKRRRM
B2: Sur7 (protein, UniProt P54003 1-302)
chain: MVKVWNIVLRLVVLLFLAGNTLLLILMIISGATDHYPVNRFYWVQGNTTGIPNAGDETRWTFWGACLQDKDGSDTCTSNLAPAYPISPVDNFNTHINVPHQFISKRDAFYYLTRFSFCFFWIALAFVGVSFILYVLTWCSKMLSEMVLILMSFGFVFNTAAVVLQTAASAMAKNAFHDDHRSAQLGASMMGMAWASVFLCIVEFILLVFWSVRARLASTYSIDNSRYRTSSRWNPFHREKEQATDPILTATGPEDMQQSASIVGPSSNANPVTATAATENQPKGINFFTIRKSHERPDDVSV
B3: Whi2 (protein, UniProt P12611 1-486)
chain: MDDIITQVSPDNAESAPILQEQQQQQNSQYEGNEEDYGDSLIHLNIQENHYFITRDQLMSLPESLLLCLFPSGVFLDRCGQVITNLTRDDEVYIVNFPPDCFEYIMEIYTKAHDDLYNHPVEKFFDRPSSSFVSNAKGFFGLSSNNSISSNNEQDILHQKPAIIVLREDLDYYCVPQEEFQFDSTNEENNEDLLRHFMAQVKMAAGSYLTSKTSIFQGLYSSNRLKQQQQQQKIEKGSNSSSNTKSTSKKLGPAEQHLMDMLCSSGFTKETCWGNRTQETGKTVISSLSLCRLANETTEGFRQKFNEAKAKWEAEHKPSQDNFITPMQSNISINSLSASKSNSTISTARNLTSGSTAPATARDKRKSRLSKLADNVRSHSSSRHSSQTRSKPPELPKLYDLVPKPNINAKLLLFWRKPARKCWWGEEDIELEVEVFGSWKDESKKIIELILPTNVDPEAELHKIIVPVRLHIRRVWTLELSVIGVQ
B4: Brx1 (protein, UniProt Q08235 1-291)
chain: MSSIYKALAGKSKDNKSEKKQGNVKQFMNKQRTLLISSRGVNYRHRHLIQDLSGLLPHSRKEPKLDTKKDLQQLNEIAELYNCNNVLFFEARKHQDLYLWLSKPPNGPTIKFYIQNLHTMDELNFTGNCLKGSRPVLSFDQRFESSPHYQLIKELLVHNFGVPPNARKSKPFIDHVMSFSIVDDKIWVRTYEISHSTKNKEEYEDGEEDISLVEIGPRFVMTVILILEGSFGGPKIYENKQYVSPNVVRAQIKQQAAEEAKSRAEAAVERKIKRRENVLAADPLSNDALFK
B5: Bsp1 (protein, UniProt Q06604 1-576)
chain: MTKYERDPELVNFLSKVEDLNSKRYSNIPSSKPAGEALSPVRSHNSGEYRRADMMTGKNVEGCDNLAYRSAYNYEMTFSPKKTHYSLSELNLERITPRPDLEGSASQKEKKFLISEEDYLLLQKLKASQTYNDSNADKNLPSFEKGPRMPSRGRPRPREKEIITIQYDFELPGRADIPSSSSSSSPPPLPTRRDHIKITDGNEEKPLLPTRPNKAEVTESPSSRSIKPDAVVPERVKPAPPVSRSTKPASFLSSLEDNKLTKAKSYNSEMETPKTTVKSSHIDYLDSIQLKPTTLSPTMKNKPKPTPPSPPAKRIPRSESFIKSMLNSNLTTTSKPSLPEKPQKLRNANLAAHKTKPSIPPKKVELNIVLPELRPVETSPTKQNFENSIDLPKLRSSNRNIKKEEEDSIPEAIKGIQNLKKTKQQKPAIPQKKSFLTNNSKNTTLKNGDDINKLNDEIEALSLRNNLKKRPPTAPQRKISLPEALRKVELMKKSKTEPVLESSNELSINAKLDAIIASRNLRASNTLPELSGVNTNIATSDKYTTSRDETVKETKPLVHPNKNRTRGPRRKLPTRV
B6: Bud7 (protein, UniProt Q08754 1-746)
chain: MITQNSIPEVKEDFIGYALHERRIRLPQFQDLGPADLVTLTKYLPTSSNTNAINSTSRNGAAIIQSPAAVVADDSAASMATNGDASDTAVTTNYTNASIYSSSRNANDGAPMVAELHPLDKLKDEVGTFFYSMGVDTSGPTSIAIFLKEISEVISEKPQVWFGRKKTFNVARISFSTWNAFRRCDINVVVHIPGSIQNFIVDCNGESQNIEMCADYDLIWAETFVSGVVRSIMLMKENAEEGELQNLVETLILNPFTAGQIDDVPEMFIDLFPIVYHKGPLLGAPYYITNVTNTNNYLVETLVEIVKLTRNVSRAEIMLKNLATDNPEAIIILIKIFLVCDQELDAIKLTYDMLSQDKIINNTNNRMDYKSELLCLQAQFLIDKRQDYSLAQNIAQEAVNCSPSEFRPWYLLSKVYVKLNDIENALLILNSCPMSPLKEKYVLKRVAPLPSNNSLHLPLPIDVVLDEVTSLNPQDVQNEHRSADPMLVNLAASNLKSTFQLAYRLLTEIVQITGWENLLKYRSNIFVMEEEYQKSSSSLPKDVNKQEEQPLRAKRLCERWLDNLFMLLYEDLKMYTLWQTEQLYMDAQNNNHNKLTFEWELFGLCARRLGHFPEAAKAFQNGLSQRFSSRCARKLLEYCINERQRVKNFINSPNSHDMVPEIVSSRIRELDNSIIDLCVKICCWNHRWYTEFSISLLDCLSVVIQDMSLTKVSNEISSRYPETVLNLVQENLLNFFTTCTIGCYDA
B7: Nma1 (protein, UniProt Q06178 1-401)
chain: MDPTRAPDFKPPSADEELIPPPDPESKIPKSIPIIPYVLADANSSIDAPFNIKRKKKHPKHHHHHHHSRKEGNDKKHQHIPLNQDDFQPLSAEVSSEDDDADFRSKERYGSDSTTESETRGVQKYQIADLEEVPHGIVRQARTLEDYEFPSHRLSKKLLDPNKLPLVIVACGSFSPITYLHLRMFEMALDAISEQTRFEVIGGYYSPVSDNYQKQGLAPSYHRVRMCELACERTSSWLMVDAWESLQPSYTRTAKVLDHFNHEINIKRGGVATVTGEKIGVKIMLLAGGDLIESMGEPNVWADADLHHILGNYGCLIVERTGSDVRSFLLSHDIMYEHRRNILIIKQLIYNDISSTKVRLFIRRAMSVQYLLPNSVIRYIQEHRLYVDQTEPVKQVLGNKE
B8: Osh6 (protein, UniProt Q02201 1-448)
chain: MGSKKLTVGSDSHRLSKSSFSSNKSSHSATKDQPIDTDDIDEDDESGHNIILNIISQLRPGCDLTRITLPTFILEKKSMLERVTNQLQFPEFLLQAHSEKDPLKRFLYVMKWYLAGWHIAPKAVKKPLNPVLGEYFTAYWDLPNKQQAYYISEQTSHHPPECAYFYMIPESSIRVDGVVIPKSRFLGNSSAAMMDGSTVLQFLDIKDGNGKPEKYVLTQPNVYVRGILFGKMRIELGDHMIIKSPNFQADIEFKTKGYVFGTYDAIEGTVKDYDGNAYYEISGKWNDVMYLKDLKQPRSSPKVFLDTHKESPLRPKVRPLSEQGEYESRKLWKKVTDALAVRNHPVATEEKFQIEDHQRQLAKKRIEDGVEFHPKLFRRSKPGEDLDYCIYKNIPVDEDPEKQIRSILQIAPILPGQQFTDKFFIPAFEKIKSQKKMIENEKQNPAKQ
B9: Puf3 (protein, UniProt Q07807 1-879)
chain: MEMNMDMDMDMELASIVSSLSALSHSNNNGGQAAAAGIVNGGAAGSQQIGGFRRSSFTTANEVDSEILLLHGSSESSPIFKKTALSVGTAPPFSTNSKKFFGNGGNYYQYRSTDTASLSSASYNNYHTHHTAANLGKNNKVNHLLGQYSASIAGPVYYNGNDNNNSGGEGFFEKFGKSLIDGTRELESQDRPDAVNTQSQFISKSVSNASLDTQNTFEQNVESDKNFNKLNRNTTNSGSLYHSSSNSGSSASLESENAHYPKRNIWNVANTPVFRPSNNPAAVGATNVALPNQQDGPANNNFPPYMNGFPPNQFHQGPHYQNFPNYLIGSPSNFISQMISVQIPANEDTEDSNGKKKKKANRPSSVSSPSSPPNNSPFPFAYPNPMMFMPPPPLSAPQQQQQQQQQQQQEDQQQQQQQENPYIYYPTPNPIPVKMPKDEKTFKKRNNKNHPANNSNNANKQANPYLENSIPTKNTSKKNASSKSNESTANNHKSHSHSHPHSQSLQQQQQTYHRSPLLEQLRNSSSDKNSNSNMSLKDIFGHSLEFCKDQHGSRFIQRELATSPASEKEVIFNEIRDDAIELSNDVFGNYVIQKFFEFGSKIQKNTLVDQFKGNMKQLSLQMYACRVIQKALEYIDSNQRIELVLELSDSVLQMIKDQNGNHVIQKAIETIPIEKLPFILSSLTGHIYHLSTHSYGCRVIQRLLEFGSSEDQESILNELKDFIPYLIQDQYGNYVIQYVLQQDQFTNKEMVDIKQEIIETVANNVVEYSKHKFASNVVEKSILYGSKNQKDLIISKILPRDKNHALNLEDDSPMILMIKDQFANYVIQKLVNVSEGEGKKLIVIAIRAYLDKLNKSNSLGNRHLASVEKLAALVENAEV
B10: Rpf2 (protein, UniProt P36160 1-344)
chain: MIRTVKPKNARAKRALVKREAKLVENVKQALFIPGQSCNKNLHDIMVDLSALKKPDMKRFNRKNDIHPFEDMSPLEFFSEKNDCSLMVLMTSSKKRKNNMTFIRTFGYKIYDMIELMVADNFKLLSDFKKLTFTVGLKPMFTFQGAAFDTHPVYKQIKSLFLDFFRGESTDLQDVAGLQHVISMTIQGDFQDGEPLPNVLFRVYKLKSYKSDQGGKRLPRIELVEIGPRLDFKIGRIHTPSPDMVTEAHKKPKQLEMKTKKNVELDIMGDKLGRIHMGKQDLGKLQTRKMKGLKSKFDQGTEEGDGEVDEDYEDEASYSDDGQEYEEEFVSATDIEPSAKRQKK
B11: Rpn5 (protein, UniProt Q12250 1-445)
chain: MSRDAPIKADKDYSQILKEEFPKIDSLAQNDCNSALDQLLVLEKKTRQASDLASSKEVLAKIVDLLASRNKWDDLNEQLTLLSKKHGQLKLSIQYMIQKVMEYLKSSKSLDLNTRISVIETIRVVTENKIFVEVERARVTKDLVEIKKEEGKIDEAADILCELQVETYGSMEMSEKIQFILEQMELSILKGDYSQATVLSRKILKKTFKNPKYESLKLEYYNLLVKISLHKREYLEVAQYLQEIYQTDAIKSDEAKWKPVLSHIVYFLVLSPYGNLQNDLIHKIQNDNNLKKLESQESLVKLFTTNELMRWPIVQKTYEPVLNEDDLAFGGEANKHHWEDLQKRVIEHNLRVISEYYSRITLLRLNELLDLTESQTETYISDLVNQGIIYAKVNRPAKIVNFEKPKNSSQLLNEWSHNVDELLEHIETIGHLITKEEIMHGLQAK

Target: Pbp1-myc (S. cerevisiae) (UniProt P53297)
Assay: affinity purification with mass spectrometry; cells unstressed or glucose-depleted (10 min for Dcp1-myc, 60 min for Pbp1-myc), cross-linked with 0.8% formaldehyde; 20,000 g pellet of the lysate in Blob100 buffer (20 mM Tris-HCl pH 8, 100 mM NaCl, 1 mM MgCl2, 0.5% NP40) on anti-c-Myc magnetic beads, eluted with Myc peptide; label-free LC-MS/MS; hits are the proteins that cluster (Mfuzz) with the tagged bait across IP, pellet, supernatant, total and unbound fractions

Row | Binder | binding
1 | B1 | binds
2 | B2 | binds
3 | B3 | binds
4 | B4 | binds
5 | B5 | binds
6 | B6 | binds
7 | B7 | binds
8 | B8 | binds
9 | B9 | binds
10 | B10 | binds
11 | B11 | binds
